# Primary screen of a compound library

Chains of the proteins cited; added tags and fusions are not shown. Residues count along the entry.
UniProt Q8IDJ8, 1-583: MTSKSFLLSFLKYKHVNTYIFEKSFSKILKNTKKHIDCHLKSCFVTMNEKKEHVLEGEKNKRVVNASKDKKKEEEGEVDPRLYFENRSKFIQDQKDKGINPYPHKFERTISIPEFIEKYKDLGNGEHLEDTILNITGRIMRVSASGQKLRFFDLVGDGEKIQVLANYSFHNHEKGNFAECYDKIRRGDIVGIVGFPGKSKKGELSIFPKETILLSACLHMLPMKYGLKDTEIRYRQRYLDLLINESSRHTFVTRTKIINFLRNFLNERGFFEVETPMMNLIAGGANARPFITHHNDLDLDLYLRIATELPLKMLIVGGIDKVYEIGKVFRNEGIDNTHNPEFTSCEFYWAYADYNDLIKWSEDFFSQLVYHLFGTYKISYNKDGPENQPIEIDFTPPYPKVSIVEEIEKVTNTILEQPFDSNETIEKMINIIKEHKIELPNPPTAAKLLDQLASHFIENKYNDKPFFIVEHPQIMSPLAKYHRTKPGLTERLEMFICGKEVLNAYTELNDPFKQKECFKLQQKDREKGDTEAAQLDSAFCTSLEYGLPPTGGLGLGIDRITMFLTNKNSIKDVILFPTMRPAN
UniProt P9WFT3, whole entry: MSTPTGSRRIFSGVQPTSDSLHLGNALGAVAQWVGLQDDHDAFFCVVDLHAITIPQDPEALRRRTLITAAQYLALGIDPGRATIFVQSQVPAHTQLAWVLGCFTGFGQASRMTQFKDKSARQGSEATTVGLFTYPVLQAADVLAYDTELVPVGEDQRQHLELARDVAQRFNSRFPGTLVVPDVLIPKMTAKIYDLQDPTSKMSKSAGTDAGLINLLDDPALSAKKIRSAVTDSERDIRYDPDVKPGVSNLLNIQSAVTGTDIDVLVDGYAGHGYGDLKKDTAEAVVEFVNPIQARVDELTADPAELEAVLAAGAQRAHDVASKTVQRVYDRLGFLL
UniProt P9WPC5, whole entry: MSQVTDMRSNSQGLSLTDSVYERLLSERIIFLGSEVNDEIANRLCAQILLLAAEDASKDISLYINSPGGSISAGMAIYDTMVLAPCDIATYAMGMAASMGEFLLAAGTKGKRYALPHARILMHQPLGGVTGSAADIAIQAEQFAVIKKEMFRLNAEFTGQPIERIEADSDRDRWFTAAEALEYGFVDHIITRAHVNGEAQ
UniProt P9WPC3, whole entry partner: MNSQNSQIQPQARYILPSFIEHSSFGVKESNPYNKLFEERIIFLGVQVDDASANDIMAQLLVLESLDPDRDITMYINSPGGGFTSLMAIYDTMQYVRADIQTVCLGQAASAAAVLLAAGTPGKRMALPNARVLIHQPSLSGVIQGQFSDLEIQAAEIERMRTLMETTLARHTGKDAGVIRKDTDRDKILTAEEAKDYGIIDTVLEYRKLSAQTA
UniProt Q4DA54, 1-478: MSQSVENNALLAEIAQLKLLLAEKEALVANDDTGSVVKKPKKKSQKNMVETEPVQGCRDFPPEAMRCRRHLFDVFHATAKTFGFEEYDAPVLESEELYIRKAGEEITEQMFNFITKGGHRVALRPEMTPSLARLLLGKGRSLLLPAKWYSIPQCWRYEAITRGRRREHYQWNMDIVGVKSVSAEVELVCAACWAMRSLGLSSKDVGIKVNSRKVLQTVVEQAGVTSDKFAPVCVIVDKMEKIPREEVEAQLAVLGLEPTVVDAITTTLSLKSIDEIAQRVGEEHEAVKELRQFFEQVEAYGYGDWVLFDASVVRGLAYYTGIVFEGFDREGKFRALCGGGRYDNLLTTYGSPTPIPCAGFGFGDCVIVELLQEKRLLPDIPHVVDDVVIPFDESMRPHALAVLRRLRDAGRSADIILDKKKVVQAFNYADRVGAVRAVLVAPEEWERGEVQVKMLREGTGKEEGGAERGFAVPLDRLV

The values are deposited in ChEMBL (CHEMBL3988442, “University of Dundee, Small-Polar-MMV Screening Library” (2021)).

PfKRS1: 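Lysine-tRNA ligase, Plasmodium falciparum 3D7 (UniProt Q8IDJ8). Enzyme assay of the cytosolic lysyl-tRNA synthetase in 384-well plates, read by luminescence. Concentration: 30 µM. Higher reads as stronger inhibition, judged from the few compounds that gave an IC50. Of about 69,000 compounds tested this way, about 49 (0.071%) reached 50% or more in at least one test.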
MtTrpRS: 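Enzyme assay of tryptophanyl-tRNA synthetase; the read-out is not stated. Target: Tryptophan-tRNA ligase, Mycobacterium tuberculosis (UniProt P9WFT3). Tested at 10 µM. Direction is not recorded; retested compounds ran higher, which suggests that high means inhibition. Size under these conditions: about 65,000 compounds, about 64 of them at 50% or above in at least one test.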
ClpP1P2: 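Protease assay of ClpP1P2, read by the AMC dye that it sets free. Target: ClpP1P2, Mycobacterium tuberculosis (UniProt P9WPC5 and UniProt P9WPC3). Concentration: 50 µM. Direction is inferred from only a few compounds that gave an IC50; most scored high, so higher reads as stronger inhibition. Most other retested compounds had strongly negative values. About 69,000 compounds were tested under these conditions; 0.015% (about 10) showed 50% or more at least once.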
TcHisRS: 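Histidine-tRNA ligase, Trypanosoma cruzi CL Brener (UniProt Q4DA54). Enzyme assay of histidyl-tRNA synthetase; the read-out is not stated. Compounds at 30 µM. The record gives no direction; compounds that gave an IC50 in retests scored well above the rest, so higher reads as stronger inhibition. About 69,000 compounds were tested under these conditions; 0.045% (about 31) showed 50% or more at least once.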

The filed quantity is “Percent Effect” (%).
The record does not define 0% and 100%; most values in the screen are far below 50% and negative numbers occur (in some assays of this library far below -100).
The compounds are a random part of those screened.
A dash means the value is not listed here; it may have been measured.

SMILES: NC(=O)Cn1nc(-c2ccccc2F)ccc1=O
PfKRS1: -2.605%
MtTrpRS: 0.9488%
ClpP1P2: -7.828%
TcHisRS: 6%

SMILES: COc1ccc(CNC(=O)CCSCc2csc(C)n2)cn1
PfKRS1: -1.995%
MtTrpRS: -13.2%
ClpP1P2: -3.605%
TcHisRS: 2.326%

SMILES: Cn1cc(-c2cnc(-c3ccnn3C)nc2)cc1C(=O)NC1CC1
PfKRS1: 3.01%
ClpP1P2: -16.16%
TcHisRS: 3.333%

SMILES: CCCNC(c1cccnc1)c1ccc(F)c(C)c1 (stereo not drawn)
PfKRS1: -1.636%
MtTrpRS: 2.311%
ClpP1P2: 2.125%
TcHisRS: 3.659%

SMILES: CN1CCN(CCOc2ccc(NC(=O)c3ccncc3)cc2)CC1
PfKRS1: 2.281%
MtTrpRS: -1.329%
ClpP1P2: -4.189%
TcHisRS: 9.392%

SMILES: Cc1ccc(OCCC(=O)NC2CCc3nccn3C2)cc1 (stereo not drawn)
PfKRS1: 0.4759%
MtTrpRS: -0.3178%
ClpP1P2: -4.397%
TcHisRS: 1.087%

SMILES: COc1ncc(C(=O)N2CCCC3(C=Cc4ccccc4O3)CC2)cn1 (stereo not drawn)
PfKRS1: -2.465%
MtTrpRS: 7.123%
ClpP1P2: 14.63%
TcHisRS: 5.319%

SMILES: Cc1ocnc1C(=O)N1CCN(Cc2ccccc2)[C@@H]2CS(=O)(=O)C[C@@H]21
PfKRS1: 2.409%
MtTrpRS: -0.3396%
ClpP1P2: -2.385%
TcHisRS: 5.195%

SMILES: CNC(=O)c1cn2cc(-c3cccc(Cl)c3)n(CC=C(C)C)c(=O)c2n1
PfKRS1: 4%
MtTrpRS: -0.9441%
ClpP1P2: -1.07%
TcHisRS: 11.52%

SMILES: CC(O)(CCc1ccccc1)CNC(=O)c1cccs1 (stereo not drawn)
PfKRS1: 0.7809%
MtTrpRS: -5.547%
ClpP1P2: -14.27%
TcHisRS: 6.186%

SMILES: O=C(CN1CCCNC1=O)N(Cc1ccccc1)CC(F)F
PfKRS1: 2.589%
MtTrpRS: -7.265%
ClpP1P2: -1.864%
TcHisRS: 4.348%

SMILES: O=C(c1ccncn1)N1CCC[C@]2(C[C@@H](OCC3CC3)CO2)C1
PfKRS1: 5.24%
MtTrpRS: -2.033%
ClpP1P2: 9.724%
TcHisRS: 6.863%

SMILES: CS(=O)(=O)N1CCO[C@@H]2CN(C(=O)N3CCOCC3)CC[C@@H]2C1
PfKRS1: 4.599%
ClpP1P2: -0.4138%
TcHisRS: 11.05%

SMILES: CC(=O)N(C)CCc1nc(-c2cc(C(N)=O)co2)cs1
PfKRS1: 3.592%
MtTrpRS: 0.9877%
ClpP1P2: -5.309%
TcHisRS: 5.952%

SMILES: N#Cc1ccccc1N1CCCN(C(=O)CCc2ccco2)CC1
PfKRS1: 0.2109%
MtTrpRS: -3.245%
ClpP1P2: -37.82%
TcHisRS: 6.34%

SMILES: O=C(COC1CCCC1)NCCc1nc(-c2ccccn2)cs1
PfKRS1: 6.409%
MtTrpRS: 1.905%
ClpP1P2: -7.258%
TcHisRS: 2.212%

SMILES: COc1ccc(F)cc1CN(CC(N)=O)C(C)C
PfKRS1: 3.422%
MtTrpRS: 2.761%
ClpP1P2: 11.61%
TcHisRS: 6.077%

SMILES: COCCN1CCC12CCN(C(=O)c1ccsc1)CC2
PfKRS1: 3.448%
MtTrpRS: -4.554%
ClpP1P2: -4.513%
TcHisRS: 4.908%

SMILES: CC(C)n1ccnc1C1CCCN(c2ncccc2C(N)=O)C1 (stereo not drawn)
PfKRS1: 1.424%
MtTrpRS: -5.74%
ClpP1P2: 1.413%
TcHisRS: 8.939%

SMILES: COCCN(Cc1ccccn1)C(=O)CC1OCCc2ccccc21 (stereo not drawn)
PfKRS1: 4.537%
MtTrpRS: -3.488%
ClpP1P2: 2.202%
TcHisRS: -1.149%

SMILES: COc1ccccc1CN1CC[C@]2(C[C@@H](OCC(=O)N(C)C)CO2)C1
PfKRS1: 5.717%
MtTrpRS: -7.114%
ClpP1P2: 9.064%
TcHisRS: 7.216%

SMILES: O=C(Cn1cnc2sccc2c1=O)NCCCc1nnc2ccccn12
PfKRS1: 2.077%
MtTrpRS: -1.22%
ClpP1P2: -9.029%
TcHisRS: -3.727%

SMILES: Cc1cc(C)c(CNC(=O)NCc2ccncc2)c(=O)[nH]1
PfKRS1: -0.02636%
MtTrpRS: -8.087%
ClpP1P2: -21.81%
TcHisRS: 4.678%

SMILES: COc1ccc(CN(Cc2cn(C)nc2C)CC2CCCO2)c(OC)c1 (stereo not drawn)
PfKRS1: 3.542%
ClpP1P2: -4.749%
TcHisRS: 4.444%

2 of the entries, repeated:

SMILES,PfKRS1,MtTrpRS,ClpP1P2,TcHisRS
CS(=O)(=O)N1CCO[C@@H]2CN(C(=O)N3CCOCC3)CC[C@@H]2C1,4.599%,-,-0.4138%,11.05%
Cc1cc(C)c(CNC(=O)NCc2ccncc2)c(=O)[nH]1,-0.02636%,-8.087%,-21.81%,4.678%